No constants are given. Whether binding was seen depends on the method and setting. In cells and extracts the contact can be indirect. Some entries that bind do so weakly or less than the wild type. Sequences can lack the tags named with a protein.
Columns and labels:
[1] = target: T1, Flag-ROC fragment (N-terminal Flag-tagged DAPk ROC fragment, amino acids 667-954) (human) (UniProt P53355); experiment: co-immunoprecipitation with anti-Flag beads from co-transfected HEK 293T cells, western blot (FIG. 2D)
T1 sequence: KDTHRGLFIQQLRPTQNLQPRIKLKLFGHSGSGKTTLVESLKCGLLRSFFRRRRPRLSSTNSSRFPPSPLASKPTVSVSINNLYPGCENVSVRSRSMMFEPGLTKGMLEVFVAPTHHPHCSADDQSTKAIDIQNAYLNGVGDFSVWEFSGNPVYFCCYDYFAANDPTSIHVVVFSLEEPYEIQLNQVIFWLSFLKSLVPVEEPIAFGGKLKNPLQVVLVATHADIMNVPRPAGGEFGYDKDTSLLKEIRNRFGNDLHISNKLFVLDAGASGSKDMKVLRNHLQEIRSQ

[2] = target: T2, Flag-tagged ROC fragment ΔP-Loop (lacking amino acids 695-702) (human) (UniProt P53355); experiment: as above
T2 sequence: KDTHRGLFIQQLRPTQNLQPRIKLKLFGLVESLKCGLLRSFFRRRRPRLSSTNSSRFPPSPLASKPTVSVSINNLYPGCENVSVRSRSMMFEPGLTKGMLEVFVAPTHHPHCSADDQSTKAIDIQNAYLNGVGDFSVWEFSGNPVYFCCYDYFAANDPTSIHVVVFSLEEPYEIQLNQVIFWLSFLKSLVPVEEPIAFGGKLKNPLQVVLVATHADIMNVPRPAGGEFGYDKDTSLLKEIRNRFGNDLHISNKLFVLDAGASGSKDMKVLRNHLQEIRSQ

binding [1]: binds | binding [2]: binds
B1: HA-ROC (N-terminal HA-tagged DAPk ROC fragment, amino acids 667-954) (protein, not shown: small tags and cut ends)
chain: T1 sequence

Reference: patent US20130266582A1
